From paper PMC11861591 come the findings set out here.

The assay deals with T1, Flag-RAB33A (UniProt Q14088).
T1 sequence: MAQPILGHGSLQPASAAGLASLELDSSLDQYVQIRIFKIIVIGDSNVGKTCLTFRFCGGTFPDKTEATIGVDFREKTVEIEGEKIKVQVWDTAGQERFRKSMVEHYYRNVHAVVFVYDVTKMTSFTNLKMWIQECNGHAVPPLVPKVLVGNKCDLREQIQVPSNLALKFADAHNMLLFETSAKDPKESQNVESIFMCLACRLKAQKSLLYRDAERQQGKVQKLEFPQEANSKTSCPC
In words: co-IP; lysates (RIPA buffer: 150 mM NaCl, 0.5% EDTA, 50 mM Tris-HCl, 0.5% NP40) of cotransfected HEK293T cells incubated with anti-Flag agarose beads for 1.5 h at 4 °C, six washes with RIPA buffer, western blotting.

No constants are given. Whether binding was seen depends on the method and setting. In cells and extracts the contact can be indirect. Some binding calls cover weakened binding; strength is not graded here. Where a sequence is shown, tags or fusion partners need not be part of it.

B1: V5-TBC1D2A^∆CC (protein, UniProt Q9BYX2)
chain: MEGAGENAPESSSSAPGSEESARDPQVPPPEEESGDCARSLEAVPKKLCGYLSKFGGKGPIRGWKSRWFFYDERKCQLYYSRTAQDANPLDSIDLSSAVFDCKADAEEGIFEIKTPSRVITLKAATKQAMLYWLQQLQMKRWEFHNSPPAPPATPDAALAGNGPVLHLELGQEEAELEEFLCPVKTPPGLVGVAAALQPFPALQNISLKHLGTEIQNTMHNIRGNKQAQGTGHEPPGEDSPQSGEPQREEQPLASDASTPGREPEDSPKPAPKPSLTISFAQKAKRQNNTFPFFSEGIQVICKLSEKVTQDFTHPPDQSPLRPDAANRDFLSQQGKIEHLKDDMEAYRTQNCFLNSEIHQVTKIWRKVAEKEKALLTKCAYLQARNCQVESKYLAGLRRLQEALGDEASECSELLRQLVQEALQWEAGEASSDSIELSPISKYDEYGFLTVPDYEVEDLKLLAKIQALESRSHHLLGLEAVDRPLRERWAALGDLVPSAELKQLLRAGVPREHRPRVWRWLVHLRVQHLHTPGCYQELLSRGQAREHPAARQIELDLNRTFPNNKHFTCPTSSFPDKLRRVLLAFSWQNPTIGYCQGLNRLAAIALLVLEEEESAFWCLVAIVETIMPADYYCNTLTASQVDQRVLQDLLSEKLPRLMAHLGQHHVDLSLVTFNWFLVVFADSLISNILLRVWDAFLYEGTKVVFRYALAIFKYNEKEILRLQNGLEIYQYLRFFTKTISNSRKLMNIAFNDMNPFRMKQLRQLRMVHRERLEAELRELEQLKAEYLERRASRRRAVSEGCASEDEVEGEA
As for B1, the binding entry is recorded as “no binding”.

B2: V5-TBC1D2A (protein, UniProt Q9BYX2 1-928)
chain: MEGAGENAPESSSSAPGSEESARDPQVPPPEEESGDCARSLEAVPKKLCGYLSKFGGKGPIRGWKSRWFFYDERKCQLYYSRTAQDANPLDSIDLSSAVFDCKADAEEGIFEIKTPSRVITLKAATKQAMLYWLQQLQMKRWEFHNSPPAPPATPDAALAGNGPVLHLELGQEEAELEEFLCPVKTPPGLVGVAAALQPFPALQNISLKHLGTEIQNTMHNIRGNKQAQGTGHEPPGEDSPQSGEPQREEQPLASDASTPGREPEDSPKPAPKPSLTISFAQKAKRQNNTFPFFSEGITRNRTAQEKVAALEQQVLMLTKELKSQKELVKILHKALEAAQQEKRASSAYLAAAEDKDRLELVRHKVRQIAELGRRVEALEQERESLAHTASLREQQVQELQQHVQLLMDKNHAKQQVICKLSEKVTQDFTHPPDQSPLRPDAANRDFLSQQGKIEHLKDDMEAYRTQNCFLNSEIHQVTKIWRKVAEKEKALLTKCAYLQARNCQVESKYLAGLRRLQEALGDEASECSELLRQLVQEALQWEAGEASSDSIELSPISKYDEYGFLTVPDYEVEDLKLLAKIQALESRSHHLLGLEAVDRPLRERWAALGDLVPSAELKQLLRAGVPREHRPRVWRWLVHLRVQHLHTPGCYQELLSRGQAREHPAARQIELDLNRTFPNNKHFTCPTSSFPDKLRRVLLAFSWQNPTIGYCQGLNRLAAIALLVLEEEESAFWCLVAIVETIMPADYYCNTLTASQVDQRVLQDLLSEKLPRLMAHLGQHHVDLSLVTFNWFLVVFADSLISNILLRVWDAFLYEGTKVVFRYALAIFKYNEKEILRLQNGLEIYQYLRFFTKTISNSRKLMNIAFNDMNPFRMKQLRQLRMVHRERLEAELRELEQLKAEYLERRASRRRAVSEGCASEDEVEGEA
For B2, the binding entry is reported as “binds”.
